The experiment in a line: qHTS Assay for Modulators of Lamin A Splicing. Conditions: HeLa LMNA splicing GFP/RFP minigene ratio, 48 h. In a few lines:
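S3 HeLa stable clones carrying a lamin A-EGFP splicing minigene plus DsRed2 were seeded at 600 cells/well in Opti-MEM with 2% FBS, pin-dosed and incubated 48 h at 37°C. Acumen cytometry (488 nm) gave the GFP/RFP total-intensity ratio.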
A general note: Quantitative high-throughput screening tests each substance at several concentrations.

Setting [1] is: measured here: RFP viability control channel.
Where [2] appears, read: measured here: GFP splicing reporter channel.

This is one part of the list. Further columns of the screen follow, without active or inactive calls. The list favours compounds with an active or inconclusive main result. Words in brackets tell the shape of the fitted curve; partial curves, single points and poor fits give uncertain potencies.

The AC50 is the concentration at which the activity in the assay is half-maximal. Regarding `COc1ccc(S(=O)(=O)n2nc(-c3cc(OC)c(OC)c(OC)c3)cc2N)cc1OC`, the AC50 under setting [1] was 15.8 µM [rising, single point].
Same read-out and setting: next, `Cc1ccccc1NC(=S)N1CCN(C(=O)c2ccco2)CC1`: 0.891 µM [rising, full curve, poor fit]; `CCc1nnc(NC(=O)c2ccc(N(C)S(=O)(=O)c3ccccc3)cc2)s1`: 11.2 µM [rising, partial curve].
Turning to `COc1ccc(-c2n[nH]c(C)c2-c2ccc(Cl)cc2)c(O)c1OC`, the AC50 under setting [1] is 31.6 µM [rising, single point].
On the same count and under the same terms, as for `Cn1nnnc1SCC(=O)N1CCc2ccccc2C1`, the figure is 0.794 µM [rising, full curve, poor fit]; as for `Cn1nc(C(F)(F)F)c(-c2ccccc2)c1NC(=O)c1cccnc1`, 35.5 µM [falling, single point].
Turning to `CCOC(=O)c1cccc2c(=O)c(C(=O)c3ccc(Cl)cc3)c(C(=O)OC)[nH]c12`, the AC50 under setting [1] is 35.5 µM [rising, single point].
Take `C=CCOC(=O)C1=C(C)NC(C)=C(C(=O)OCC=C)C1/C=C/c1ccccc1`: the AC50 was 35.5 µM [falling, partial curve, poor fit] under setting [2] and 35.5 µM [falling, partial curve, poor fit] under setting [1].
Turning to `O=C(NCc1ccc(Cl)cc1)C1CCN(S(=O)(=O)c2ccc3c(c2)CCCN3C(=O)C2CCC2)CC1`, the AC50 under setting [1] was 0.562 µM [falling, single point].
With `CC(C)(C)c1ccc(S(=O)(=O)N2CCN(C(=O)c3cc(-c4ccc(Br)cc4)n[nH]3)CC2)cc1`, the AC50 under setting [2] is 12.6 µM [falling, single point] and the AC50 under setting [1] is 10 µM [falling, partial curve, poor fit].
Consider `CC(C)CC(NC(=O)CCl)c1ccccc1` (configuration not stated), for which the AC50 under setting [1] was 35.5 µM [rising, single point].
For the molecule `Cc1ccccc1C(=O)c1cccn1CC(=O)NCCN1CCN(c2cccc(C)c2C)CC1`, the AC50 under setting [1] was 14.1 µM [rising, partial curve].
Regarding `COc1ccc(C(=O)/C=C/c2cc(OC)c(O)c(OC)c2)c(F)c1`, the AC50 was 35.5 µM [falling, partial curve] under setting [2] and 31.6 µM [falling, single point] under setting [1].
`CCOP(=O)(OCC)c1nc(-c2ccc(Cl)cc2Cl)oc1N1CCOCC1`: the AC50 under setting [2] is 2 µM [falling, partial curve] and the AC50 under setting [1] is 6.31 µM [falling, partial curve, poor fit].
Consider `Cc1ccc(/C(C#N)=C\c2ccc(N3CCOCC3)o2)cc1`, for which the AC50 under setting [2] was 35.5 µM [falling, single point] and the AC50 under setting [1] is 35.5 µM [falling, single point].
`COc1ccc(CNC(=S)Nc2ccccc2-c2ccccc2)cc1`: the AC50 under setting [1] was 6.31 µM [falling, single point].
Same read-out and setting: next, `CCN1c2ccccc2N(C)C1(C)c1ccccc1` (configuration not stated): 7.08 µM [rising, full curve, poor fit]; `CCOC(=O)N1CCC(N2C(=O)c3ccccc3C2Nc2ccc3c(C)cc(=O)oc3c2)CC1` (configuration not stated): 17.8 µM [rising, partial curve, poor fit]; `CN(C)S(=O)(=O)c1cccc(NC(=O)COC(=O)C2(c3ccccc3F)CCCC2)c1`: 11.2 µM [rising, partial curve].
Take `COc1ccc(C(=O)CCN2CCCCCC2)cc1`: the AC50 under setting [1] is 0.224 µM [falling, full curve, poor fit].
`O=C1CC(c2ccco2)CC(O)=C1C=Nc1cc(Cl)ccc1O` (configuration not stated): the AC50 under setting [1] was 5.62 µM [rising, partial curve].
On the same count and under the same terms, next, `CCOc1ccc(-c2nnn(CC(=O)NCCc3c[nH]c4ccccc34)n2)cc1`: 35.5 µM [rising, single point].
In the case of `COc1ccc(-c2nnc(SCC(=O)NCc3ccccc3)nc2-c2ccc(OC)c(OC)c2)cc1OC`, the AC50 is, setting by setting: under setting [2], 20 µM [rising, partial curve]; under setting [1], 17.8 µM [rising, partial curve].
Take `O=C(Nc1ccccc1)c1cc2ccccc2[nH]1`: the AC50 runs as follows: under setting [2], 31.6 µM [rising, single point]; under setting [1], 35.5 µM [rising, single point].
For `CCc1nc(C)cn1S(=O)(=O)c1cc([N+](=O)[O-])ccc1Cl`, the concentration at half-maximal activity (AC50) is, setting by setting: under setting [2], 0.0708 µM [falling, partial curve]; under setting [1], 0.355 µM [falling, partial curve].
As for `Cc1cc(C)n(CC(O)Cn2c3ccc(Cl)cc3c3cc(Cl)ccc32)c(=O)n1` (configuration not stated), under setting [1], the AC50 is 12.6 µM [rising, single point].
`CCOC(=O)C1(Cc2ccccc2)CCN(Cc2cccn2-c2cccnc2)CC1`: the AC50 under setting [2] was 0.00447 µM [rising, full curve, poor fit].
Turning to `CC1(C)NC(=O)N(CCCCSc2ccc(Cl)cc2)C1=O`, the AC50 under setting [1] was 10 µM [rising, partial curve].
For `Cc1ccc(NS(=O)(=O)c2cc(C(=O)NCCSc3ccc(C)cc3)ccc2C)cc1`, the concentration at half-maximal activity (AC50) under setting [2] is 12.6 µM [falling, partial curve, poor fit] and the AC50 under setting [1] was 20 µM [falling, single point].
In the case of `Cc1ccc(Cc2c(C)nc3nc(SCC(=O)NCc4ccco4)nn3c2C)cc1`, the AC50 by setting is: under setting [2], 4.47 µM [falling, full curve]; under setting [1], 4.47 µM [falling, full curve].
Take `Cn1c(SCC(=O)N/N=C/c2ccc([N+](=O)[O-])s2)nnc1-c1ccccc1`: under setting [1], the AC50 is 31.6 µM [rising, single point].
Same read-out and setting: next, `COc1ccc(NC(=O)N2CCN(c3cccc(C(F)(F)F)c3)CC2)cc1`: 1.12 µM [rising, full curve, poor fit].
In the case of `CC1=NN(C(=O)COc2ccccc2)C(O)(c2cccnc2)C1` (configuration not stated), under setting [2], the AC50 is 0.112 µM [rising, single point].
Still for that read-out and setting: next, `Cc1ccc(NC(=O)CSc2nc3ccccc3c3nc(CCn4cncc4C)nn23)c(C)c1`: 0.00891 µM [falling, full curve].
Take `CN(C1CCCCC1)S(=O)(=O)c1ccc(NC(=O)C2CCCCC2)cc1`: the AC50 runs as follows: under setting [2], 0.316 µM [rising, full curve, poor fit]; under setting [1], 14.1 µM [rising, partial curve, poor fit].
On to `Oc1c(C(c2ccc(Br)cc2)N2CCOCC2)sc2nc(-c3ccco3)nn12` (configuration not stated), for which the AC50 under setting [1] is 1.26 µM [falling, full curve, poor fit].
For `O=C(NCc1ccc(F)cc1)C(=O)NCC1OCCN1S(=O)(=O)c1cccs1` (configuration not stated), the AC50 under setting [2] is 0.282 µM [falling, full curve, poor fit].
Take `Cc1ccc2c(c1)c1c(n2CC(O)Cn2nc(C)c(Br)c2C)CCCC1` (configuration not stated): the half-maximal activity concentration (AC50) was 35.5 µM [falling, single point] under setting [2] and 20 µM [falling, single point] under setting [1].
For the molecule `COCCOC(=O)c1c(C)nc(SCC(=O)Nc2ccc(C)cc2)c(C#N)c1-c1ccco1`, under setting [1], the AC50 is 22.4 µM [rising, single point].
As for `CCC(OCC(O)CN1CCN(CCN2C(=O)c3cccc4cccc(c34)C2=O)CC1)c1ccccc1` (configuration not stated), the AC50 reads like this: under setting [2], 5.62 µM [falling, partial curve]; under setting [1], 3.55 µM [falling, partial curve].
On to `COc1ccc(CN(C(=O)CSc2nnc(-c3c[nH]c4ccccc34)o2)c2ccc(F)cc2)cc1OC`, for which the concentration at half-maximal activity (AC50) under setting [1] is 31.6 µM [falling, single point].
Same read-out and setting: as for `Cc1c(-c2cc[n+]([O-])cc2)oc2ccc(Br)cc2c1=O`, the figure is 1.78 µM [rising, full curve, poor fit].
For the molecule `COC(=O)CSC1=C(C#N)C(c2cccc(F)c2)CC(=O)N1` (configuration not stated), the AC50 under setting [2] is 35.5 µM [falling, single point] and the AC50 under setting [1] is 35.5 µM [falling, single point].
Regarding `CCOC(=O)c1cnc(-c2ccccc2)nc1Oc1ccc(OC)cc1`, the AC50 under setting [1] is 35.5 µM [rising, single point].
Same read-out and setting: as for `CC1(C)CC(=O)C(C(C2=C(O)CC(C)(C)CC2=O)c2ccc(O)c([N+](=O)[O-])c2)=C(O)C1`, the figure is 0.501 µM [falling, full curve, poor fit].
The same measure, in the same setting: next, `CCc1cc(/C(Cc2cscn2)=N\O)c(O)cc1O`: 20 µM [rising, single point].
Consider `O=c1c(-c2ccccc2)nc2cnc(Oc3cccc(Cl)c3)nc2n1C1CC1`, for which the AC50 under setting [2] is 14.1 µM [falling, partial curve].
With `CCc1nnc(NS(=O)(=O)c2ccc(NC(=S)NC(=O)/C=C/c3ccc(C(C)C)cc3)cc2)s1`, the AC50 under setting [2] was 0.0398 µM [falling, single point] and the AC50 under setting [1] was 0.0316 µM [falling, single point].
Take `Cc1nc(-c2ccc(Cl)cc2)sc1C(=O)O`: under setting [2], the AC50 was 0.447 µM [rising, full curve, poor fit].
As for `O=C(c1cc(-c2ccco2)on1)N1CCN(c2ccccc2)CC1`, the AC50 under setting [1] is 17.8 µM [rising, single point].
Still for that read-out and setting: as for `Cc1cc(C)nc(Nc2n[nH]c(C)n2)n1`, the figure is 0.0112 µM [rising, full curve, poor fit]; as for `CCOc1ccc(Cc2n[nH]c(=S)n2Cc2ccccc2)cc1`, 31.6 µM [rising, single point].
For the molecule `Cc1ccc(N=c2c([N+](=O)[O-])nn(-c3ccc4c(c3)OCCO4)n2O)c(Cl)c1`, the AC50 under setting [2] is 10 µM [falling, partial curve] and the AC50 under setting [1] was 10 µM [falling, partial curve].
Consider `O=C(NC(=S)Nc1ccccc1O)c1ccc(-c2ccc(Cl)cc2)o1`, for which the AC50 under setting [1] was 17.8 µM [rising, single point].
As to `CCOC(=O)C(CC)Sc1ccc2nnc(CCNS(=O)(=O)c3ccccc3)n2n1` (configuration not stated), the AC50 under setting [2] was 20 µM [rising, partial curve, poor fit].
As for `Cc1nnn(C23CC4CC(CC(CC(=O)Nc5ccc(C)c(C)c5)(C4)C2)C3)n1`, the AC50 under setting [1] was 35.5 µM [rising, single point].
